# Data: PubChem BioAssay AID504327 (National Center for Advancing Translational Sciences (NCATS), 2011)
# Sequences of proteins named here, by UniProt entry; tags and fusion partners are left off.
# UniProt Q92830, whole entry, looked up: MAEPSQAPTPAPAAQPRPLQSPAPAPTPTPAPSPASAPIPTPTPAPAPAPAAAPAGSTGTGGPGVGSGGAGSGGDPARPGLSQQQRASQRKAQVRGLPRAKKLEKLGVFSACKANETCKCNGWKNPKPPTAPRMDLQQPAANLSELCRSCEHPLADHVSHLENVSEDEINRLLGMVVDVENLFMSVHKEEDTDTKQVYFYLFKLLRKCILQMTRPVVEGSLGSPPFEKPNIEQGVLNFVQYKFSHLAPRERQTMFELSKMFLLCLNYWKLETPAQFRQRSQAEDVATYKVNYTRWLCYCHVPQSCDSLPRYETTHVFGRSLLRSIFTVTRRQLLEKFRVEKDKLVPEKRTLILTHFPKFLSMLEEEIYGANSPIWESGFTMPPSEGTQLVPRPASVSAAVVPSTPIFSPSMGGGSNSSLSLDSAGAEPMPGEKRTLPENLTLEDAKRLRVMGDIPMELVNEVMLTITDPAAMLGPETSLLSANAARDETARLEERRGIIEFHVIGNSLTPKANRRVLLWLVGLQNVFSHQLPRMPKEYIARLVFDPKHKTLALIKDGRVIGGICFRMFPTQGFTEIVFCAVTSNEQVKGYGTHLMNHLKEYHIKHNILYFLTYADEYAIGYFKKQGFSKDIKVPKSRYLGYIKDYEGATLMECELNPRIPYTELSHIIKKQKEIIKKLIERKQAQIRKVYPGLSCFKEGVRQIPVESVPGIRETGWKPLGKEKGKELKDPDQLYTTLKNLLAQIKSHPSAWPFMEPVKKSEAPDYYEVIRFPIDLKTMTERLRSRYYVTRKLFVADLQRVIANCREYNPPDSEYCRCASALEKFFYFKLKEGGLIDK
# Hit rate of the full screen: of about 390,000 compounds, about 820 (0.21%) were called active. Inconclusive results, whose numbers are uncertain, are shown with a selection of clear calls. Calls come from the whole dose curve; as a rule, active = well fitted inhibition curve with a large enough effect; inconclusive = small, poorly fitted or top-dose-only effect, or another doubt; inactive = no such curve, though single readings can be large or run the other way. A potency beside an inconclusive call is a rough fit, not a confirmed value.
# Target: Histone acetyltransferase KAT2A (Homo sapiens) (UniProt Q92830)
# Experiment: qHTS Assay for Inhibitors of GCN5L2
# Settings: GCN5L2 HAT assay, ThioGlo1 CoA-SH fluorescence; activity change, negative = inhibition: at 58.9 µM (top of the series) unless noted
# Summary of the method: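 ThioGlo1-coupled HAT assay: 20nM GCN5L2, 70uM acetyl-CoA, 75uM H3(1-25) peptide, pH 7.5. Fluorescence read at 340/540nm at start and after 20 min at room temperature.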
# % is set by controls: 0 for no effect and ±100 for the full control effect; potency is the fitted concentration of half-maximal effect.
Compound,Potency,"activity change, negative = inhibition"
COc1ccccc1Oc1c(C)oc2c(CN3CCOCC3)c(O)ccc2c1=O,"inconclusive: 22.4 µM [inhibitor, partial curve]",
COc1ccc(-n2c(C)cc(/C=C3\C(=N)N4N=C(CC(=O)N5CCOCC5)SC4=NC3=O)c2C)cc1,"inconclusive: 17.8 µM [inhibitor, partial curve]",
O=C(/C=C/c1ccccc1)c1ccc2c(c1)OCCCCO2,,inactive: -11.9%
Cc1cc2cc(CNC(=O)NC3CCCCC3)ccc2n1C,"inconclusive: 12.6 µM [inhibitor, partial curve]",
O=C(Nc1cc(S(=O)(=O)N2CCCCC2)ccc1Cl)c1ccccc1NS(=O)(=O)c1ccc(F)cc1,"inconclusive: 28.2 µM [inhibitor, single point]",
CCOC(OCC)c1ccc(/C=C\c2nccc(N)n2)cc1,"inconclusive: 28.2 µM [inhibitor, single point]",
O=C(NC1CC1)c1cc(-c2ccco2)nc2ccccc12,"inconclusive: 39.8 µM [inhibitor, single point]",
Fc1ccc(C2CCCN2Cc2nc(Cc3ccccc3)no2)cc1 (stereo not given),"inconclusive: 11.2 µM [inhibitor, partial curve, poor fit]",
O=C(Nc1ccc2c(c1)nc1n2CCSC1)c1ccco1,"inconclusive: 39.8 µM [inhibitor, single point]",
CCOC(=O)c1ccc(NC(=O)c2ccc(C)c(S(=O)(=O)N3CCOCC3)c2)cc1,,inconclusive: -56.6% [inhibitor]
COC(=O)Cc1c(C)c2cc3c(c(C)c2oc1=O)OCN(CCc1ccc(OC)cc1)C3,active: 31.6 µM,
CCC(NS(=O)(=O)c1ccc2c(c1)NC(=O)C(C)C(=O)N2)c1cccs1 (stereo not given),"inconclusive: 3.16 µM [inhibitor, single point]",
O=C(N/N=C/c1cccs1)c1n[nH]c2c1CCC2,,inactive: -2.96%
NC(=O)c1c(NC(=O)CSc2nnc(-c3ccccc3)n2CC2CCCO2)sc2c1CCC2 (stereo not given),"inconclusive: 3.55 µM [inhibitor, partial curve, poor fit]",
COc1ccc(N(CC(=O)N2CCN(c3ccc(F)cc3)CC2)S(=O)(=O)c2c(C)n[nH]c2C)cc1,inactive,
COc1ccc(C(=O)NCC(=O)OCn2nnc3ccccc3c2=O)cc1OC,"inconclusive: 0.794 µM [inhibitor, single point]",
CC1CCCC(C)N1C(=O)C1CCCCC1 (stereo not given),,inactive: -1.27%
COc1cc(OC)cc(C(=O)Nc2ccc3oc(-c4ccc(Cl)cc4)nc3c2)c1,,inactive: -5.28%
CCOC(=O)c1c(N2C(=O)Nc3cc(Cl)c(Cl)cc3N2O)sc2c1CCCCC2,"inconclusive: 35.5 µM [inhibitor, single point]",
Cc1ccc(C(=O)O)cc1NC(=S)NC(=O)c1ccc(COc2ccccc2)cc1,"inconclusive: 0.631 µM [inhibitor, single point]",
CCCCc1cc(=O)oc2c(CN(CC)CC)c(O)c(Cl)cc12,"inconclusive: 35.5 µM [inhibitor, single point]",
Nc1nc2ccc([N+](=O)[O-])c(N)c2s1,,inactive: -7.66%
CC(C)C[C@H](NC(=O)c1nc[nH]c1C(=O)NCC(=O)OCc1ccccc1)C(=O)OC(C)(C)C,"inconclusive: 31.6 µM [inhibitor, single point]",

# Shown with tabs: part of the list above.
Compound	Potency	activity change, negative = inhibition
O=C(NC1CC1)c1cc(-c2ccco2)nc2ccccc12	inconclusive: 39.8 µM [inhibitor, single point]	
Fc1ccc(C2CCCN2Cc2nc(Cc3ccccc3)no2)cc1 (stereo not given)	inconclusive: 11.2 µM [inhibitor, partial curve, poor fit]	
O=C(Nc1ccc2c(c1)nc1n2CCSC1)c1ccco1	inconclusive: 39.8 µM [inhibitor, single point]	
CCOC(=O)c1ccc(NC(=O)c2ccc(C)c(S(=O)(=O)N3CCOCC3)c2)cc1		inconclusive: -56.6% [inhibitor]
COC(=O)Cc1c(C)c2cc3c(c(C)c2oc1=O)OCN(CCc1ccc(OC)cc1)C3	active: 31.6 µM	
CCC(NS(=O)(=O)c1ccc2c(c1)NC(=O)C(C)C(=O)N2)c1cccs1 (stereo not given)	inconclusive: 3.16 µM [inhibitor, single point]	
O=C(N/N=C/c1cccs1)c1n[nH]c2c1CCC2		inactive: -2.96%
NC(=O)c1c(NC(=O)CSc2nnc(-c3ccccc3)n2CC2CCCO2)sc2c1CCC2 (stereo not given)	inconclusive: 3.55 µM [inhibitor, partial curve, poor fit]	
COc1ccc(N(CC(=O)N2CCN(c3ccc(F)cc3)CC2)S(=O)(=O)c2c(C)n[nH]c2C)cc1	inactive	
COc1ccc(C(=O)NCC(=O)OCn2nnc3ccccc3c2=O)cc1OC	inconclusive: 0.794 µM [inhibitor, single point]	
CC1CCCC(C)N1C(=O)C1CCCCC1 (stereo not given)		inactive: -1.27%

# Later entries.

Compound,Potency,"activity change, negative = inhibition"
CN(Cc1cc2ccccc2[nH]c1=O)S(=O)(=O)c1ccccc1,"inconclusive: 39.8 µM [inhibitor, single point]",
CCCCN(CC)CCCNC(=O)C1CCN(c2nc3ccc(CC)cc3s2)CC1,,inactive: -2.68%
O=C(Cc1ccccc1[N+](=O)[O-])NCCSCc1c(F)cccc1Cl,"inconclusive: 39.8 µM [inhibitor, single point]",
Cc1ccc(C)c(OCC(=O)Nc2nc3ccc([N+](=O)[O-])cc3s2)c1C,"inconclusive: 39.8 µM [inhibitor, single point]",
O=c1c2c([N+](=O)[O-])cc([N+](=O)[O-])cc2sn1Cc1ccccc1,active: 1.26 µM,
COc1cc(S(=O)(=O)NCCCn2ccnc2)ccc1Cl,"inconclusive: 7.08 µM [inhibitor, single point]",
COc1cc2c(cc1OC)C(c1cc3cc(OC)c(OC)cc3[nH]c1=O)N(C(=O)C1CC1)CC2 (stereo not given),,inactive: -7.41%
COc1ccccc1OCC(=O)Nc1ccc(NC(=O)COc2ccccc2OC)cc1,"inconclusive: 39.8 µM [inhibitor, single point]",
Cc1cccc(-n2ccnc2SCC(=O)Nc2cc(C)on2)c1,,inactive: -1.48%
Cc1ccc(NS(=O)(=O)c2ccc(C(=O)NCc3ccccn3)cc2)cc1,"inconclusive: 39.8 µM [inhibitor, single point]",
O=c1c(-c2cccs2)nc2cnc(N3CCNCC3)nc2n1C1CC1,"inconclusive: 15.8 µM [inhibitor, partial curve]",
Cc1cc2nc(CCl)cc(=O)n2[nH]1,"inconclusive: 0.631 µM [inhibitor, single point]",
CCN(CC)c1ccc(S(=O)(=O)N2CCCCC2)cc1NC(=O)C1CCC1,"inconclusive: 25.1 µM [inhibitor, partial curve]",
CNc1nc(-c2c(C)noc2C)nc2ccccc12,"inconclusive: 31.6 µM [inhibitor, partial curve]",
O=C(Nc1nc(-c2nc3ccccc3s2)cs1)C1COc2ccccc2O1 (stereo not given),,inactive: -9.69%
COc1ccccc1NS(=O)(=O)c1cc(N)ccc1N1CCCC1,,inactive: -13.7%
NC[C@H](O)c1ccc(O)c(O)c1,"inconclusive: 17.8 µM [inhibitor, partial curve]",
O=C(NCCCN1CCOCC1)c1ccc2c(c1)N(Cc1ccccc1)CCS2,,inactive: -6.96%
COC(=O)c1cccc(C(=O)Nc2ccc(F)cc2)n1,active: 15.8 µM,
CCCCc1c(C)nc2ccc(C(=O)OCC)cc2c1Cl,"inconclusive: 0.891 µM [inhibitor, single point]",
COc1ccc(CN2CCN(Cc3cccc(Oc4ccccc4)c3)CC2)c(OC)c1OC,"inconclusive: 39.8 µM [inhibitor, single point]",
CC(C)[C@@H](C(=O)N[C@@H](C(=O)O)c1ccccc1)N1C(=O)N2CCc3c([nH]c4ccccc34)[C@@]2(C)C1=O,"inconclusive: 20 µM [inhibitor, single point]",
